PubChem BioAssay AID1688 (National Center for Advancing Translational Sciences (NCATS), 2009)
Among all 220,000 compounds or so, about 2,400 (1.1%) were called active. Inconclusive means that the source gave no clear call. Such entries were picked first, then a sample of the others. Calls follow the shape of the dose curve; as a rule, active = well fitted inhibition curve with a large enough effect; inconclusive = small, poorly fitted or top-dose-only effect, or effect the other way; inactive = no such curve, though single readings can be large or run the other way. A potency beside an inconclusive call is a rough fit, not a confirmed value.

test: qHTS Multiplex Assay to Identify Dual Action Probes in a Cell Model of Huntington: Aggregate Formation (GFP); conditions: PC12 HttQ103-GFP aggregates, Acumen cytometry, 40 h; activity change, negative = inhibition: at 46.1 µM (top of the series) unless noted; also: nearly all actives have a fitted effect of over 60% in size
Summary of the method: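 Huntingtin Q103 exon 1–GFP aggregates in induced PC12 cells (100 nM tebufenozide) were quantified by cytometry from lysates, with compounds dosed in titration.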
% is scaled to controls: 0 for no effect and ±100 for the full control effect; potency is read from the fitted curve at half-maximal effect.

Structure (SMILES) | Potency | activity change, negative = inhibition
O=C(NCc1cn(-c2ccccc2)nc1-c1ccc(F)cc1)c1cccc([N+](=O)[O-])c1 | inconclusive: 35.5 µM [activator, single point] | 
CN(C)c1cccc(C(=O)N/N=C/c2ccsc2)c1 |  | inactive: 25.5%
COc1ccccc1C(=O)Nc1nc2ccc(S(C)(=O)=O)cc2s1 |  | inactive: -19.6%
O=C(c1ccccc1)N1CCCCC(S(=O)(=O)c2ccc3ccccc3c2)C1=O (stereo unspecified) |  | inactive: -0.695%
CCOC(=O)N1CCN(C(=O)c2ccc3c(SCC(=O)O)c4c(nc3c2)CCCC4)CC1 |  | inactive: 4.41%
Cc1cc(S(=O)(=O)NCCc2ccccc2)c(C)s1 | inconclusive: 35.5 µM [inhibitor, single point] | 
Cc1ccc(S(=O)(=O)/N=C2/C=C(Sc3ncn[nH]3)C(=O)c3ccccc32)cc1 | active: 3.16 µM | 
S=C(NCCCc1ccccc1)Nc1ccc(Cl)cc1 | inconclusive: 35.5 µM [inhibitor, single point] | 
CC1CCCCN1C(=S)Nc1ccc2nc3n(c(=O)c2c1)CCCCC3 (stereo unspecified) | inconclusive: 1.58 µM [inhibitor, full curve, poor fit] | 
CCN(CC)S(=O)(=O)c1cc(NS(=O)(=O)c2ccccc2)ccc1C | inconclusive: 3.16 µM [inhibitor, single point] | 
CCn1c(=NC(=O)c2ccc(S(=O)(=O)N(C)C)cc2)sc2cccc(OC)c21 | inconclusive: 35.5 µM [inhibitor, single point] | 
Cc1ccc(C2CC(C(F)F)n3ncc(C(=O)Nc4c(C)nn(Cc5c(F)cccc5Cl)c4C)c3N2)cc1 (stereo unspecified) | inconclusive: 11.2 µM [inhibitor, single point] | 
Nc1ccc2nc3c(=O)n(C4CCCCC4)c(=O)[nH]c3nc2c1 | inconclusive: 3.98 µM [inhibitor, partial curve] | 
O=[N+]([O-])c1ccc(NC2CCN(Cc3ccccc3)CC2)c([N+](=O)[O-])c1 |  | inactive: -4.43%
Cc1onc(-c2c(Cl)cccc2Cl)c1C(=O)NC(=S)Nc1sc2c(c1C(N)=O)CCC(C)C2 (stereo unspecified) |  | inactive: 1.02%
CC(C)(C)NC(=O)CCCSc1nc2ccccc2s1 | inconclusive: 35.5 µM [inhibitor, single point] | 
O=C(NCC1CCCO1)C(c1ccncc1)N(Cc1ccc(F)cc1)C(=O)CN1C(=O)c2ccccc2S1(=O)=O (stereo unspecified) |  | inactive: -1.6%
O=C(NC(=S)Nc1ccc(S(=O)(=O)Nc2nccs2)cc1)c1ccc(F)cc1 |  | inactive: 14.8%
CNC(=S)N=Nc1c(O)[nH]c2ccc(C(C)C)cc12 | inconclusive: 2.82 µM [inhibitor, single point] | 
Fc1ccc(CNn2cnnc2SCc2ccc(F)cc2)cc1 | inconclusive: 10 µM [inhibitor, partial curve] | 
CCC(C)(C)n1nnnc1CN1CCN(C(c2ccccc2)c2ccccc2)CC1 | active: 14.1 µM | 
C(=C\c1ccccc1)/C=N/N1CCN(c2ccccn2)CC1 | inconclusive: 0.708 µM [activator, single point] | 
Cc1cc(N/N=C/c2ccccc2Br)nc2ccccc12 | inconclusive: 35.5 µM [inhibitor, single point] | 
CCN(CC)C(=O)c1oc2ccc(S(=O)(=O)N3CCCCCC3)cc2c1C | active: 10 µM | 

Structure (SMILES) | Potency | activity change, negative = inhibition
Cc1cc(C(=O)CCl)c(C)n1-c1c(C)n(C)n(-c2ccccc2)c1=O | inconclusive: 31.6 µM [inhibitor, single point] | 
COc1ccc2nc(NC(=O)CN(c3ccc(C)cc3)S(=O)(=O)c3c(C)nn(C)c3C)sc2c1 | inconclusive: 35.5 µM [inhibitor, single point] | 
CCCN(CCC)C(=O)CC(c1ccccc1)c1cc(C)ccc1O (stereo unspecified) | inconclusive: 10 µM [activator, partial curve] | 
Cc1cccc(NC(=S)NC2CCCC2)n1 | inconclusive: 0.631 µM [activator, full curve, poor fit] | 
CC(=O)Nc1ccc(N=Cc2c(O)c(C(=O)Nc3ccccc3)cc3ccccc23)cc1 | inconclusive: 35.5 µM [inhibitor, single point] | 
Cn1nc(C(F)(F)F)c(C#N)c1N1CCN(c2ccc(F)cc2)CC1 | active: 11.2 µM | 
CC(C)C1Cc2c(sc3[nH]c(=S)n(Cc4ccccc4)c(=O)c23)CO1 (stereo unspecified) | inconclusive: 0.631 µM [inhibitor, full curve] | 
COC(=O)Nc1cc(C(F)(F)F)ccc1N1CCN(c2ccccc2)CC1 | inconclusive: 3.16 µM [inhibitor, partial curve] | 
O=c1[nH]c(CN2CCN(c3ccccc3)CC2)nc2scc(-c3ccccc3)c12 |  | inactive: 4.48%
CCCCN(CCCC)S(=O)(=O)c1ccc(NC(=O)Cc2cccs2)cc1 | inconclusive: 35.5 µM [inhibitor, single point] | 
Cc1sc2ncnc(NCCc3ccc(S(N)(=O)=O)cc3)c2c1C | active: 0.708 µM | 
CCN(CC)C(=O)C(C)N(C#N)c1nc(C)cc(C)n1 (stereo unspecified) | inconclusive: 20 µM [activator, partial curve] | 
Cc1cccc(NC(=O)c2oc3c(c2C)C(=O)CC(C)(C)C3)n1 | active: 22.4 µM | 
COc1ccc(-c2cn3c(C)c(C(=O)Nc4ccncc4)sc3n2)cc1 | inconclusive: 2.82 µM [inhibitor, full curve, poor fit] | 
CCOC(=O)C1C(=O)CC(C)(O)C(C(=O)OCC)C1c1ccc(Br)cc1 (stereo unspecified) | inconclusive: 35.5 µM [inhibitor, single point] | 
COc1ccc(C(=O)C2CCCN(Cc3ccc4nonc4c3)C2)c(OC)c1 (stereo unspecified) | inconclusive: 22.4 µM [inhibitor, single point] | 
O=C(CN1CCOCC1)Nc1nc(-c2ccc3c(c2)CCN3S(=O)(=O)c2ccccc2)cs1 | inconclusive: 35.5 µM [inhibitor, single point] | 
O=C(O)/C=C/C(=O)Nc1ccc(Oc2ccccc2)cc1 |  | inactive: -5.69% [at 9.22 µM]
O=C(Nc1nc2ccc(F)cc2s1)c1ccccn1 | inconclusive: 5.62 µM [inhibitor, single point] | 
O=C(c1cc2sccc2n1Cc1ccc(F)cc1)N1CCCc2ccccc21 | inconclusive: 35.5 µM [inhibitor, partial curve] | 
O=C(CSc1nc2ccsc2c(=O)n1Cc1ccc(C(=O)O)cc1)NCc1ccco1 |  | inactive: 4.26%
CC(C)(C)C1CCC(OCC(O)CN2CCCC2)CC1 (stereo unspecified) | inconclusive: 1 µM [activator, full curve] | 
O=C(Cn1c(=O)[nH]n(-c2ccccc2)c1=O)N1CCCc2ccccc21 | active: 1.26 µM | 
Cc1cccc(NC(=S)NC(C)CCc2ccccc2)c1 (stereo unspecified) | inconclusive: 22.4 µM [inhibitor, single point] | 

As entered above.
Potency, COc1ccc(C(=O)C2CCCN(Cc3ccc4nonc4c3)C2)c(OC)c1 (stereo unspecified) reads inconclusive: 22.4 µM [inhibitor, single point]
Potency, Nc1ccc2nc3c(=O)n(C4CCCCC4)c(=O)[nH]c3nc2c1 reads inconclusive: 3.98 µM [inhibitor, partial curve]
Potency, CCN(CC)C(=O)C(C)N(C#N)c1nc(C)cc(C)n1 (stereo unspecified) reads inconclusive: 20 µM [activator, partial curve]
activity change, negative = inhibition, O=[N+]([O-])c1ccc(NC2CCN(Cc3ccccc3)CC2)c([N+](=O)[O-])c1 reads inactive: -4.43%
Potency, O=C(NCc1cn(-c2ccccc2)nc1-c1ccc(F)cc1)c1cccc([N+](=O)[O-])c1 reads inconclusive: 35.5 µM [activator, single point]
activity change, negative = inhibition, O=C(c1ccccc1)N1CCCCC(S(=O)(=O)c2ccc3ccccc3c2)C1=O (stereo unspecified) reads inactive: -0.695%

(list continues)

Structure (SMILES) | Potency | activity change, negative = inhibition
CCOC(=O)c1c(C)[nH]c(C(=O)NCc2ccccc2OC)c1C | inconclusive: 35.5 µM [inhibitor, single point] | 
CCN1CCN(C(=O)CSc2cc(=O)n(CC)c3ccccc23)CC1 | inconclusive: 25.1 µM [activator, single point] | 
COc1ccc(-c2csc(NC(=O)C3CC(=O)N(c4ccc5c(c4)OCCO5)C3)n2)cc1 (stereo unspecified) | inconclusive: 7.08 µM [inhibitor, partial curve] | 
C/C(=N\NC(=O)Cc1ccc(Cl)cc1)c1ccccn1 | inconclusive: 3.16 µM [inhibitor, single point] | 
O=C(Nc1nc2ccccc2n1CCOc1ccccc1)c1ccco1 | inconclusive: 5.62 µM [inhibitor, full curve] | 
CCC(C(=O)NNC(=O)c1cnccn1)c1ccccc1 (stereo unspecified) | active: 7.94 µM | 
Cc1cc(C)cc(NC(=O)CSc2nnc(-c3ccccc3Br)o2)c1 |  | inactive: 4.11%
C=CCSc1nnc(NC(=O)CSc2nc(CCC)cc(=O)[nH]2)s1 | active: 11.2 µM | 
CC(=O)C1=C(O)C(=O)N(CCC(=O)O)C1c1cccc(F)c1 (stereo unspecified) | inconclusive: 1 µM [inhibitor, full curve, poor fit] | 
Cc1nnc(-c2ccc(Oc3ccc(C)c(C)c3)c([N+](=O)[O-])c2)o1 | active: 11.2 µM | 
COC(=O)c1cc2sccc2n1Cc1nc(-c2cccc(Cl)c2)oc1C | inconclusive: 35.5 µM [inhibitor, single point] | 
COc1ccc(/C=N/NC(=O)c2ccc(=O)[nH]n2)cc1OC | inconclusive: 35.5 µM [inhibitor, single point] | 
COc1ccc(CCNC(=O)c2nc(-c3cccs3)no2)cc1OC | inconclusive: 12.6 µM [inhibitor, single point] | 
Cc1ccc(-n2c(-c3ccccc3)cc(=O)nc2C)cc1 | inconclusive: 3.98 µM [activator, full curve, poor fit] | 
O=C(c1ccc(F)cc1)N1CCN=C1c1ccccc1 |  | inactive: 4.38%
COC(=O)c1cc(CSc2nnc(NC3CCCCC3)s2)oc1C | active: 28.2 µM | 
CCOc1ccccc1NC(=O)CSc1nnc(-c2ccccc2Cl)n1Cc1ccco1 | inconclusive: 11.2 µM [inhibitor, partial curve] | 
Cc1cc(=O)oc2cc(OC(=O)c3cncc(Br)c3)ccc12 |  | inactive: 23.7%
COc1cc(Cc2ccc(N)c(OC)c2)ccc1N |  | inactive: 4.54%
COc1cccc(OCc2nc3ncc(Br)cc3[nH]2)c1 | inconclusive: 7.94 µM [inhibitor, partial curve] | 
NC(=O)c1cc2ccc(O)cc2oc1=Nc1ccccc1 | active: 7.08 µM | 
O=C(Cc1ccccc1)NCc1ccc2c(c1)OCO2 |  | inactive: 3.44% [at 9.22 µM]
COCC(C)n1c(C)cc(C(=O)COc2ccc(C)nc2[N+](=O)[O-])c1C (stereo unspecified) | inconclusive: 5.62 µM [activator, single point] | 
